# US20140228312A1, “ANTIBIOTIC COMPOSITION AND ITS USES” (Agency for Science, Technology and Research, priority 2011, published 2014)
# At least one read-out could not be matched to a standard name with certainty.
# Test system: B. cereus
# Assay: MIC assay, antibiotic with or without DSF-family molecules
# Assay type: cell-based, Bacillus cereus
# Conditions: 50 μM DSF-family molecule vs MeOH control
# Experimental: Minimum inhibitory concentration (MIC) was determined according to the 2003 guidelines of Clinical and Laboratory Standards Institute (CLSI) using 96-well microtiter plates. The two-fold dilution series of antibacterial agents or antibiotics were prepared with distilled water, methanol, or dimethyl sulfoxide (DMSO). Overnight cultures of bacteria were inoculated at an OD600 of 0.025 in Luria-Bertani (LB) broth supplemented with the respective antibiotic in the absence or presence of DSF-family molecules (Table 1). One hundred microliters of inoculated culture were grown in each well at 37° C. with shaking at 150 rpm for 24 hours. MIC was defined as the lowest concentration of antibiotic in which bacterial growth in the well was not measureable by determination of the turbidity at 600 nm.
structure (smiles),measurement,value
CCCCCCCCCCC/C=C/C(=O)O [Compound T14],Fold Change of MIC of Ampicillin,2
